This test in a line: qHTS Assay to Find Inhibitors of Chronic Active B-Cell Receptor Signaling. Conditions: ABC-DLBCL IkBa-CBG/CBR reporter, luminescence ratio (green luciferase fused to IkBa over red control in TMD8 lymphoma cells), 4 h. Put shortly:
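Doxycycline induced both beetle luciferases in TMD8 lymphoma cells; IKK-driven degradation limits the IkappaBalpha-fused green signal, while red luminescence normalises for cell number and nonspecific effects. Compounds tested up to 46 uM, 4 hrs.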
On the technique in general: Quantitative high-throughput screening tests each substance at several concentrations.

Where [1] appears, read: measured here: CBR red luminescence, cell number.
Setting [2] is: measured here: IkBa-CBG green luminescence.

Drawing on PubChem BioAssay AID493014 (National Center for Advancing Translational Sciences (NCATS), 2011), this text covers AC50 for 40 compounds.

The list shows a part of the results. These are further read-outs of the screen, such as a control signal, another cell line or another target. No call is given for them. The list favours compounds with an active or inconclusive main result. Words in brackets tell the shape of the fitted curve; partial curves, single points and poor fits give uncertain potencies.

One may read the AC50 as the midpoint of the concentration-response curve, whichever way the signal moves. `CC(=O)Nc1ccccc1OCC(=O)c1cc(C)n(Cc2cccs2)c1C`: the AC50 under setting [1] is 10.3 µM [rising, partial curve, poor fit].

`CCOC(=O)CSc1nnc(NC(=O)c2ccco2)s1`: the AC50 under setting [1] was 5.01 µM [falling, full curve]. The same measure, in the same setting: with `Cc1c(NC(=O)C(C)Sc2ncnc3ccccc23)c(=O)n(-c2ccccc2)n1C` (stereo not drawn) the figure was 11.2 µM [falling, partial curve, poor fit].

As for `CC(C)C(c1nnnn1C1CCCCC1)N1CCOCC1` (stereo not drawn), under setting [1], the AC50 is 10 µM [rising, partial curve, poor fit]. In the case of `COc1ccc(NC(=S)NC2CCCC2)c(OC)c1`, the AC50 under setting [1] was 10 µM [falling, partial curve, poor fit]. On the same count and under the same terms, with `O=C(NC1CC(=O)N(c2ccc(F)cc2)C1)c1ccc(S(=O)(=O)N2CCCC2)cc1` (stereo not drawn) the figure was 35.5 µM [falling, single point]; with `CC(=O)/C=C/c1ccccc1O`, 35.5 µM [falling, single point].

As for `Cc1cccc2c(=O)cc(C(F)(F)F)[nH]c12`, under setting [1], the half-maximal activity concentration (AC50) was 35.5 µM [falling, single point].

For the compound `CN1CCN(CCCNC(=O)c2ccc(/C=C3\Oc4ccccc4N(Cc4ccc(Cl)cc4)C3=O)cc2)CC1`, under setting [1], the AC50 was 14.1 µM [falling, single point]. For the compound `Cc1cnc(=O)[nH]c1SCc1cccc([N+](=O)[O-])c1`, the AC50 under setting [1] is 4.47 µM [falling, full curve, poor fit]. Still for that read-out and setting: for `N#CCC(=O)Nc1ccc(C(=O)OCC(=O)c2c[nH]c3ccccc23)cc1` the value was 2.91 µM [falling, single point]. As to `c1ccc(Cn2nnnc2C(c2cccnc2)N2CCN(c3ccccc3)CC2)cc1` (stereo not drawn), the AC50 reads like this: under setting [1], 20 µM [falling, single point]; under setting [2], 12.6 µM [rising, partial curve, poor fit].

Turning to `Cc1ccc2[nH]c(=O)c(-c3nc4c(C)cccn4c3NCc3ccco3)cc2c1`, the AC50 under setting [1] was 35.5 µM [falling, single point]. For the compound `NC(=NCCc1c[nH]c2ccccc12)NC(=O)c1ccc(F)cc1`, under setting [1], the AC50 was 3.55 µM [rising, single point]. Turning to `CN1CCN(C(=O)C2=C[C@@H](c3ccc4c(c3)OCO4)C[C@@H](OCc3ccc(CO)cc3)O2)CC1`, under setting [1], the AC50 was 22.4 µM [rising, single point]. Consider `COc1cc(NC(=O)CN(C)C2CCCCC2)c(C)cc1[N+](=O)[O-]`, for which the AC50 under setting [1] was 29.1 µM [falling, single point] and the AC50 under setting [2] was 29.1 µM [rising, partial curve, poor fit]. As for `Cc1ccc(CN2CCN(C(=O)c3ccncc3)CC2)cc1`, the half-maximal activity concentration (AC50) under setting [1] is 0.708 µM [rising, full curve, poor fit]. Same read-out and setting: with `CCC(=O)Nc1nnc(Cc2ccccc2)s1` the figure was 5.8 µM [rising, partial curve]; with `COc1ccc(OC)c(S(=O)(=O)NC(C)(C)C)c1`, 29.1 µM [rising, single point]; with `Cc1c(Cl)cccc1N1CC(C)(C)C1=O`, 35.5 µM [rising, single point].

Take `CCOc1cc2[nH]c(=O)n(Cc3cccc(OC)c3)c(=O)c2cc1OCC`: under setting [1], the AC50 was 0.708 µM [falling, partial curve, poor fit]. Turning to `S=C(Nc1ccccc1)N1CCc2ccccc21`, the half-maximal activity concentration (AC50) under setting [1] is 22.4 µM [rising, partial curve, poor fit]. The same measure, in the same setting: with `CC1Cc2cc(/C=C3/SC(=S)N(C)C3=O)ccc2O1` (stereo not drawn) the figure was 12.6 µM [rising, partial curve]; with `COC(=O)c1cnn(-c2ccc(Cl)cc2)c1/C=N/NC(N)=S`, 2.82 µM [falling, full curve]; with `Cn1cc(C(=O)N/N=C/c2cc(Br)cs2)c2ccccc21`, 3.16 µM [rising, partial curve, poor fit].

On to `Cc1cccc(N=C2NN=C(c3ccc4c(c3)OCCO4)CS2)c1`, for which the AC50 under setting [1] was 12.6 µM [falling, partial curve]. On the same count and under the same terms, with `C[C@]12C(=O)N(c3ccc(F)cc3)C(=O)N1[C@H]1c3ccccc3OC[C@@H]1[C@H]2c1ccccc1` the figure was 0.092 µM [falling, full curve, poor fit]. Same read-out and setting: with `CCOC(=O)c1ccc(COC(=O)c2cc(=O)[nH]c3ccccc23)o1` the figure was 6.51 µM [falling, partial curve, poor fit]. As to `O=C(COC(=O)c1cncc(Br)c1)NCc1ccccc1`, the concentration at half-maximal activity (AC50) under setting [1] was 3.16 µM [rising, partial curve, poor fit]. Regarding `CC1CCCCN1C(=O)Cn1cc(/C=C2/C(=O)Nc3ccccc32)c2ccccc21` (stereo not drawn), the AC50 under setting [1] was 12.6 µM [falling, partial curve, poor fit]. On the same count and under the same terms, for `COc1ccc(/C=C/C(=O)O)cc1S(=O)(=O)NCc1ccccc1` the value was 35.5 µM [falling, single point]; for `COc1ccc(N2CC(C(=O)Nc3nc4ccc(OC)cc4s3)CC2=O)cc1` (stereo not drawn), 11.2 µM [falling, partial curve]. For the compound `C/C(=C\c1ccccc1)CN1CCN(c2ccccc2)CC1`, under setting [1], the AC50 is 2.91 µM [rising, full curve, poor fit]. For `CCCOC(=O)c1ccc(NC(=O)CSC2=Nc3ccccc3C3CC=NN23)cc1` (stereo not drawn), the AC50 under setting [1] was 7.31 µM [falling, partial curve, poor fit]. In the case of `Clc1ccc(OCCCN2CCCCC2)c(Br)c1`, under setting [1], the AC50 is 20 µM [falling, single point]. Take `CCOC(=O)/C(C#N)=C(\O)c1ccc(NC(=O)c2ccc([N+](=O)[O-])cc2)cc1`: under setting [1], the AC50 is 1.41 µM [rising, partial curve, poor fit]. The same measure, in the same setting: with `CCN(CC)c1ccc2cc(-c3nnc(-c4ccccc4)o3)c(=O)oc2c1` the figure was 0.259 µM [falling, full curve, poor fit].

Take `COC(=O)c1ccc(C(=O)OC)c(NC(=O)CSc2cccc[n+]2[O-])c1`: the AC50 is 3.55 µM [falling, single point] under setting [1] and 3.16 µM [falling, full curve, poor fit] under setting [2].

Regarding `CCN1C(=O)/C(=C2/Sc3ccc(OC)cc3N2C)SC1=Nc1ccc(OC)cc1`, the AC50 under setting [1] was 0.398 µM [rising, full curve, poor fit]. In the case of `CC(=O)c1cccc(NC(=O)NCc2ccccn2)c1`, the AC50 under setting [1] was 20.6 µM [falling, partial curve, poor fit].
